These are yes or no findings as the source states them, for the method shown. Binding seen in cells or lysates may run through a third protein. Some binding calls cover weakened binding; strength is not graded here.
Biological target: phosphoglycerate mutase 1 (PGAM1), endogenous (human (endogenous in H2030)) (UniProt P18669)
Experiment: co-IP; endogenous proteins; cells lysed in IP lysis buffer with protease and phosphatase inhibitors, lysates pre-cleared with protein A/G magnetic beads, primary antibodies or IgG controls overnight at 4°C, captured on protein A/G beads, Western blotting

The chains behind the UniProt entries cited, without tags or fusion partners.
UniProt P18669: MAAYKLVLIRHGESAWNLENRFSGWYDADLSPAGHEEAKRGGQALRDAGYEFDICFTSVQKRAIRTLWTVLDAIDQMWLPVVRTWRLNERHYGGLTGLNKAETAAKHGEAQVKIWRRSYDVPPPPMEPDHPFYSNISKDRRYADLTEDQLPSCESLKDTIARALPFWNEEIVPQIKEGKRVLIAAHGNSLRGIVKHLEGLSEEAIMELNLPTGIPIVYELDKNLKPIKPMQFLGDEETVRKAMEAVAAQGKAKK
UniProt Q15386: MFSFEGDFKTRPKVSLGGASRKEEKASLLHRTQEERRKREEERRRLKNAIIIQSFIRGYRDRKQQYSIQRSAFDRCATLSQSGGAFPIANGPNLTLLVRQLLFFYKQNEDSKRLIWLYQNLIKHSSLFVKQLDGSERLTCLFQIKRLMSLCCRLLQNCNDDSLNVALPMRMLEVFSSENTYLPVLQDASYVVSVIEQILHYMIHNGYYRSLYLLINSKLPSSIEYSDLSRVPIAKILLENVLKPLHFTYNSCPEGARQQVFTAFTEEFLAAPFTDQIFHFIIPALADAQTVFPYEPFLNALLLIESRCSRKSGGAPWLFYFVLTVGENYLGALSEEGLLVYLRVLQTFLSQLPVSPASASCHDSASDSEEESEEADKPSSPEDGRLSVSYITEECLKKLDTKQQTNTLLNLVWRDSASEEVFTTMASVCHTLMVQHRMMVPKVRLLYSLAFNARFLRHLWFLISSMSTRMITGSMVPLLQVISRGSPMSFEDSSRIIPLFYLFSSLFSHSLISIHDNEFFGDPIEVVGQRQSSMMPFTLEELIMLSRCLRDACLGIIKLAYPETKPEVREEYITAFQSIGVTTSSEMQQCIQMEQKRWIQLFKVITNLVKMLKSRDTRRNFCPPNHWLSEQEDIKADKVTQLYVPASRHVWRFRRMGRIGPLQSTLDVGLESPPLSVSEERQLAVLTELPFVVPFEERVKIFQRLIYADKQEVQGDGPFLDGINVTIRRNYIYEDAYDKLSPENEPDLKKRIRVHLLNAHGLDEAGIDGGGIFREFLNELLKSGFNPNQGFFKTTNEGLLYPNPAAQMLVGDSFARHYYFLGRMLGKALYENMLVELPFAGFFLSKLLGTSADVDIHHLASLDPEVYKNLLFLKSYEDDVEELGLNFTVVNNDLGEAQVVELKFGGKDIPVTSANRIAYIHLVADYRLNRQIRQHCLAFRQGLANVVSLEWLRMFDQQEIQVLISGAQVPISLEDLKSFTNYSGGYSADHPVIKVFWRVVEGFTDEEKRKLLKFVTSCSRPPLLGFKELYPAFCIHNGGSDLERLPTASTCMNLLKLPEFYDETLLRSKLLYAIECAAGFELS

Substance: E3 ubiquitin ligase UBE3C, endogenous (from UniProt Q15386 1-1083) (enzyme)
- binding: binds

From paper PMC11844280
